Reference: doi:10.1101/2020.11.14.382556
These are yes or no findings as the source states them, for the method shown. In cells and extracts the contact can be indirect.

Sequences of proteins named here, by UniProt entry; tags and fusion partners are left off.
UniProt Q61315: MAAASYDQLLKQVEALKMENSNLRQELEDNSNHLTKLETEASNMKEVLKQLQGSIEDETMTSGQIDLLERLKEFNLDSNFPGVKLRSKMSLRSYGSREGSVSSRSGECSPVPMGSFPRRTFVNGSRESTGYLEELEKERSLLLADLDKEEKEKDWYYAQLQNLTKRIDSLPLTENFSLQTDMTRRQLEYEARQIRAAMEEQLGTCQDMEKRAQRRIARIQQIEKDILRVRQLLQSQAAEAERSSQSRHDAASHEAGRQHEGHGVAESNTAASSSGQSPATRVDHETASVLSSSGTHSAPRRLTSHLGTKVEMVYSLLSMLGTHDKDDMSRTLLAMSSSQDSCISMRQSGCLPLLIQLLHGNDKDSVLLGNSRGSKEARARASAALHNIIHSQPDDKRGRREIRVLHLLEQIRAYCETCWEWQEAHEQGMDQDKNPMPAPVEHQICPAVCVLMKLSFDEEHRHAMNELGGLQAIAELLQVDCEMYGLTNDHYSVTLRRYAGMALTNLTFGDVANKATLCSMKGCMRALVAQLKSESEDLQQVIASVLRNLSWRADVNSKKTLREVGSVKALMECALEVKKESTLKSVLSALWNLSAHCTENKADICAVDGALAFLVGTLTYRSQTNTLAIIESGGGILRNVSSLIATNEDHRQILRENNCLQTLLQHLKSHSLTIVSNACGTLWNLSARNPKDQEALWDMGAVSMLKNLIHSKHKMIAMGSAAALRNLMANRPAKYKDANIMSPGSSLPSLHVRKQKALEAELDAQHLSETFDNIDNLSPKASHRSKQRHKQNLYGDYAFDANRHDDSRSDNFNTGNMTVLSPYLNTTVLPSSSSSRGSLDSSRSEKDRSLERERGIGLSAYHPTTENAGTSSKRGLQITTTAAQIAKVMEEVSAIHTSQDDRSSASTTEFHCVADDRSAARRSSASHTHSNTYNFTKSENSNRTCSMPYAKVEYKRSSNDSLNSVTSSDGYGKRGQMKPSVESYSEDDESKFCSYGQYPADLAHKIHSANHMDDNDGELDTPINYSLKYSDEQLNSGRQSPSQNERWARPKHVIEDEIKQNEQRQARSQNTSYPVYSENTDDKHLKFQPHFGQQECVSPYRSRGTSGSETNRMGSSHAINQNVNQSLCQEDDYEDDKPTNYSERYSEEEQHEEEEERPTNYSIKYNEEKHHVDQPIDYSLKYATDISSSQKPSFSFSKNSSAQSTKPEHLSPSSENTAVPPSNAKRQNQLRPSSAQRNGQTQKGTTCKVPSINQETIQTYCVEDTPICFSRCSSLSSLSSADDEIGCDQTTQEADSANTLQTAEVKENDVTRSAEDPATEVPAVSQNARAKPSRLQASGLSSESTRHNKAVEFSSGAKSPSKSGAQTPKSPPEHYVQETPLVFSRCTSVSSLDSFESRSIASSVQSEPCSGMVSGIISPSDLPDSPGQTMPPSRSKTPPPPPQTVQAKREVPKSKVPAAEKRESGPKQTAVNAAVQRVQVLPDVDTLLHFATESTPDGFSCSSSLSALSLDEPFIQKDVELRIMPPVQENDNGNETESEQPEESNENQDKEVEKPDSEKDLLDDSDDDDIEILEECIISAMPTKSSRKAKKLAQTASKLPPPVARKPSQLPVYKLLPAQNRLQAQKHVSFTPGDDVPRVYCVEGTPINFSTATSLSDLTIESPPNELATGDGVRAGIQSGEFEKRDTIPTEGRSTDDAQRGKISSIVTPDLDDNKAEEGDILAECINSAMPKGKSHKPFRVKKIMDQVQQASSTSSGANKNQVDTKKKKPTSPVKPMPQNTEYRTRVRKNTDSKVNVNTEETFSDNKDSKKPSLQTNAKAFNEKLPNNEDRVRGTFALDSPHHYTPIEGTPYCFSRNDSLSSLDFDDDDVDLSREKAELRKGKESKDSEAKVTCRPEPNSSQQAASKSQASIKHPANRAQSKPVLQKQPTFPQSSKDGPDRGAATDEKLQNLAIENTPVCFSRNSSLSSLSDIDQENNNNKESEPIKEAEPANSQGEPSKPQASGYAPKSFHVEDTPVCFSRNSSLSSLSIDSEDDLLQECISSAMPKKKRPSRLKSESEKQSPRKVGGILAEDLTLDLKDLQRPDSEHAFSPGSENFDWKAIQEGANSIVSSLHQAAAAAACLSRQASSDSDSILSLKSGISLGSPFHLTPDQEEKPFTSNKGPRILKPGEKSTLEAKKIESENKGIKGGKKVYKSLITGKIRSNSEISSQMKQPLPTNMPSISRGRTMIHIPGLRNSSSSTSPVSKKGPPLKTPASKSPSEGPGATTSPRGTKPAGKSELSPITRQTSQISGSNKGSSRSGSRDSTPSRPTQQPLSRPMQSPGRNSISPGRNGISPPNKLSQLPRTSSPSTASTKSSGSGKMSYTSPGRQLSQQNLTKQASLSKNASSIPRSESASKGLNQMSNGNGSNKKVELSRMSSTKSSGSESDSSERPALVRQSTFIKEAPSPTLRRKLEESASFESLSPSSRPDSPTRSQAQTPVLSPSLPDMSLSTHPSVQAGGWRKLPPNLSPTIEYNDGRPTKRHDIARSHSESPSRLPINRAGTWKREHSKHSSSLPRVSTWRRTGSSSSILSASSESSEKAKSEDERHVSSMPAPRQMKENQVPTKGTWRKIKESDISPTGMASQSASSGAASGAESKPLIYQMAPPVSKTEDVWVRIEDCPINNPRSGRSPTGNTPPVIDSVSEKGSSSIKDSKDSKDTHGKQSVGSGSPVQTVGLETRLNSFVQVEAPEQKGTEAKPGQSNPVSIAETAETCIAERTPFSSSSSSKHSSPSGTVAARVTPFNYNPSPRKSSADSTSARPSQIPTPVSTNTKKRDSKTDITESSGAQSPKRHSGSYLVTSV
UniProt Q3TSG4: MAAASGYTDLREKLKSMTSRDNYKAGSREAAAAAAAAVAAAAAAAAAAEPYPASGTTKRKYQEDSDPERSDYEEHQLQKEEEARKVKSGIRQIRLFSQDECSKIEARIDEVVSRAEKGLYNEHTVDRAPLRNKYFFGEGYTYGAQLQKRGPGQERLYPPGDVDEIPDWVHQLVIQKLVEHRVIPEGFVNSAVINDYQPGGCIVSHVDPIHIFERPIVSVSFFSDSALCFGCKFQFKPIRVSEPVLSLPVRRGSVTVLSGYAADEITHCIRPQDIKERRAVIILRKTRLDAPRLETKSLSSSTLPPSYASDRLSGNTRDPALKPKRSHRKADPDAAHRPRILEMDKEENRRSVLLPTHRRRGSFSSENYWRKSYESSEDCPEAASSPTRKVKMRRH
UniProt Q8C3P7: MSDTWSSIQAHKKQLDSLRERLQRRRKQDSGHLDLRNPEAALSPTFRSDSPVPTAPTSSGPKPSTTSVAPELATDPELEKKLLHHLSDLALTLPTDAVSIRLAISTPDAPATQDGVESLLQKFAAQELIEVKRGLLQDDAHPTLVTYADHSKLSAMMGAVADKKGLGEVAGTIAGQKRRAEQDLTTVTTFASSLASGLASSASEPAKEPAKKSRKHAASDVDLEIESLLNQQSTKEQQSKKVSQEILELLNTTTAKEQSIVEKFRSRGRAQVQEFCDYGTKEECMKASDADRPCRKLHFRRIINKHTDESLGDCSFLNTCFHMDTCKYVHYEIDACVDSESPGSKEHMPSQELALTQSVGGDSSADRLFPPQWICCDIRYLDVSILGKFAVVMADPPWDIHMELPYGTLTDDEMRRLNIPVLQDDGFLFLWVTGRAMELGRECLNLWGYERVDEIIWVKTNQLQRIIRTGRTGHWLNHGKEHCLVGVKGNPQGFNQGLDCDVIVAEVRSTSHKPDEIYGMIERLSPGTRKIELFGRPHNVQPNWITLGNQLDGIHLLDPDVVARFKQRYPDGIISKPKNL

B1: METTL14 (protein, UniProt Q3UIK4 1-456)
chain: MDSRLQEIRERQKLRRQLLAQQLGAESADSIGAVLNSKDEQREIAETRETCRASYDTSAPNSKRKCLDEGETDEDKVEEYKDELEMQQEEENLPYEEEIYKDSSTFLKGTQSLNPHNDYCQHFVDTGHRPQNFIRDVGLADRFEEYPKLRELIRLKDELIAKSNTPPMYLQADIEAFDIRELTPKFDVILLEPPLEEYYRETGITANEKCWTWDDIMKLEIDEIAAPRSFIFLWCGSGEGLDLGRVCLRKWGYRRCEDICWIKTNKNNPGKTKTLDPKAVFQRTKEHCLMGIKGTVKRSTDGDFIHANVDIDLIITEEPEIGNIEKPVEIFHIIEHFCLGRRRLHLFGRDSTIRPGWLTVGPTLTNSNYNAETYASYFSAPNSYLTGCTEEIERLRPKSPPPKSKSDRGGGAPRGGGRGGTSAGRGRERNRSNFRGERGGFRGGRGGTHRGGFTPR

Biological target: adenomatous polyposis coli (APC) (UniProt Q61315)
Assay: co-IP

| binding | Molecule |
| --- | --- |
| no binding | ALKBH5 (from UniProt Q3TSG4 1-395) |
| no binding | METTL3 (from UniProt Q8C3P7 1-580) |
| no binding | B1 |
